In the supplement of paper PMC4604168 (melanoma cell lines):
Some of the results follow. Single values are uncertain, as repeats are few or missing.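 Imaging used 1,536-well plates; nuclei positive for cleaved PARP by antibody were divided by total DNA-stained nuclei to yield the apoptosis fraction. Doses for screening kept most cells viable, and cell lines differ markedly in resting and induced cleaved-PARP levels.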

Columns and labels:
Test in all cases: cleaved PARP positive nuclei fraction relative to DMSO control; melanoma cells; higher = more apoptosis
Settings in all cases: library dose: low library concentration; 72 h
MZ2-MEL = test system: MZ2-MEL
MeWo = test system: MeWo
RPMI7951 = test system: RPMI7951
RVH-421 = test system: RVH-421
SkMel28 = test system: SkMel28
SkMel2 = test system: SkMel2
SkMel30 = test system: SkMel30
SkMel5 = test system: SkMel5
UACC257 = test system: UACC257
UACC62 = test system: UACC62
WM115 = test system: WM115
WM1716 = test system: WM1716
WM1745 = test system: WM1745
WM3526 = test system: WM3526
WM3619 = test system: WM3619
WM451Lu = test system: WM451Lu

Row | SMILES | cleaved PARP positive nuclei fraction (MZ2-MEL) | cleaved PARP positive nuclei fraction (MeWo) | cleaved PARP positive nuclei fraction (RPMI7951) | cleaved PARP positive nuclei fraction (RVH-421) | cleaved PARP positive nuclei fraction (SkMel28) | cleaved PARP positive nuclei fraction (SkMel2) | cleaved PARP positive nuclei fraction (SkMel30) | cleaved PARP positive nuclei fraction (SkMel5) | cleaved PARP positive nuclei fraction (UACC257) | cleaved PARP positive nuclei fraction (UACC62) | cleaved PARP positive nuclei fraction (WM115) | cleaved PARP positive nuclei fraction (WM1716) | cleaved PARP positive nuclei fraction (WM1745) | cleaved PARP positive nuclei fraction (WM3526) | cleaved PARP positive nuclei fraction (WM3619) | cleaved PARP positive nuclei fraction (WM451Lu)
1 | C#Cc1cccc(Nc2ncnc3cc(OCCOC)c(OCCOC)cc23)c1 [erlotinib] + C[C@@H]1CCN(C(=O)CC#N)C[C@@H]1N(C)c1ncnc2[nH]ccc12 [CP690550] (first compound 0.8 µM, partner dose 1 µM) | 129% | 108% | 54.4% | 94.4% | 34.6% | 78.3% | 145% | 81.9% | 121% | 143% | 102% | 151% | 219% | 59.3% | 92% | 50%
2 | Cn1nnc2c(C(N)=O)ncn2c1=O [temozolomide] + CC1(C)NC(=O)N(c2ccc([N+](=O)[O-])c(C(F)(F)F)c2)C1=O [nilutamide] (first compound 2 µM, partner dose 1 µM) | 54.3% | 155% | 127% | 143% | 104% | 73.3% | 73.6% | 146% | 76.7% | 149% | 65.7% | 177% | 186% | 120% | 130% | 109%
3 | C=CCNC1=C2C[C@@H](C)C[C@H](OC)[C@H](O)[C@@H](C)/C=C(\C)[C@H](OC(N)=O)[C@@H](OC)/C=C\C=C(/C)C(=O)NC(=CC1=O)C2=O [Tanespimycin] + COc1cc(N2CCC(N3CCN(C)CC3)CC2)ccc1Nc1ncc(Cl)c(Nc2ccccc2S(=O)(=O)C(C)C)n1 [NVP-TAE684] (first compound 0.002 µM, partner dose 0.08 µM) | 95.5% | 126% | 106% | 193% | 67.7% | 76.4% | 44.3% | 94.3% | 286% | 52.8% | 249% | 206% | 193% | 78.6% | 106% | 77.3%
4 | C=CCNC1=C2C[C@@H](C)C[C@H](OC)[C@H](O)[C@@H](C)/C=C(\C)[C@H](OC(N)=O)[C@@H](OC)/C=C\C=C(/C)C(=O)NC(=CC1=O)C2=O [Tanespimycin] + C=CCn1c(=O)c2cnc(Nc3ccc(N4CCN(C)CC4)cc3)nc2n1-c1cccc(C(C)(C)O)n1 [MK1775] (first compound 0.002 µM, partner dose 0.02 µM) | 75.7% | 92.8% | 151% | 90.6% | 96.7% | 112% | 149% | 124% | 196% | 167% | 78.5% | 82.6% | 112% | 84.5% | 269% | 55.9%
5 | C=CCNC1=C2C[C@@H](C)C[C@H](OC)[C@H](O)[C@@H](C)/C=C(\C)[C@H](OC(N)=O)[C@@H](OC)/C=C\C=C(/C)C(=O)NC(=CC1=O)C2=O [Tanespimycin] + Cc1cc([N+](=O)[O-])ccc1NS(=O)(=O)c1cc(Cl)ccc1Cl [FH535] (first compound 0.002 µM, partner dose 1 µM) | 109% | 87.6% | 51.4% | 123% | 112% | 60.5% | 141% | 87.6% | 95.5% | 54.3% | 140% | 115% | 121% | 215% | 91.4% | 176%
6 | COCC[n+]1c2c(n(Cc3cnccn3)c1C)C(=O)c1ccccc1C2=O + CN(NC(=O)CC(=O)NN(C)C(=S)c1ccccc1)C(=S)c1ccccc1 [STA4783] (first compound 0.0004 µM, partner dose 0.006 µM) | 393% | 433% | 125% | 131% | 177% | 76.1% | 89.7% | 161% | 14.3% | 66.8% | 510% | 245% | 382% | 70.3% | 334% | 102%
7 | Clc1ccc(Nc2nnc(Cc3ccncc3)c3ccccc23)cc1 [vatalanib] + CN(C)S(=O)(=O)c1ccc2c(c1)/C(=C/c1cc3c([nH]1)CCCC3)C(=O)N2 [SU6656] (first compound 2 µM, partner dose 0.4 µM) | 328% | 116% | 65% | 76.2% | 57.5% | 58.8% | 70.1% | 177% | 158% | 304% | 307% | 105% | 102% | 58.4% | 101% | 384%
8 | CC(C)(C)c1cnc(CSc2cnc(NC(=O)C3CCNCC3)s2)o1 + CN(C)S(=O)(=O)c1ccc2c(c1)/C(=C/c1cc3c([nH]1)CCCC3)C(=O)N2 [SU6656] (first compound 0.01 µM, partner dose 0.4 µM) | 280% | 35.9% | 83.8% | 146% | 160% | 76.2% | 56.9% | 99.3% | 122% | 291% | 318% | 143% | 95.9% | 53.7% | 111% | 68.8%
9 | CC1(C)NC(=O)N(c2ccc([N+](=O)[O-])c(C(F)(F)F)c2)C1=O [nilutamide] + COc1cc2c(Oc3ccc4[nH]c(C)cc4c3F)ncnc2cc1OCCCN1CCCC1 [cediranib] (first compound 1 µM, partner dose 0.4 µM) | 300% | 80.7% | 42.8% | 88.7% | 59% | 108% | 128% | 103% | 82.7% | 42.4% | 51.5% | 79.2% | 87.9% | 56% | 90.6% | 93.7%
10 | CC(C)(C)c1cnc(CSc2cnc(NC(=O)C3CCNCC3)s2)o1 + NC(=O)Nc1cc(-c2cccc(F)c2)sc1C(=O)N[C@H]1CCCNC1 [AZD7762] (first compound 0.01 µM, partner dose 0.02 µM) | 110% | 138% | 46.8% | 75.6% | 221% | 139% | 118% | 60.1% | 62.2% | 85.6% | 301% | 131% | 104% | 63.1% | 155% | 158%
11 | C[C@]1(c2nc3c(C(N)=O)cccc3[nH]2)CCCN1 [Veliparib] + NC(=O)Nc1cc(-c2cccc(F)c2)sc1C(=O)N[C@H]1CCCNC1 [AZD7762] (first compound 1.4 µM, partner dose 0.02 µM) | 86.3% | 57.6% | 67.3% | 34.8% | 51.3% | 50.8% | 158% | 81% | 56.6% | 207% | 59.5% | 151% | 89.5% | 70.5% | 244% | 123%
12 | O=C(CCCCCCC(=O)Nc1ccccc1)NO [vorinostat] + C=CCn1c(=O)c2cnc(Nc3ccc(N4CCN(C)CC4)cc3)nc2n1-c1cccc(C(C)(C)O)n1 [MK1775] (first compound 0.08 µM, partner dose 0.02 µM) | 127% | 202% | 185% | 177% | 394% | 37.4% | 89.1% | 245% | 83.7% | 109% | 137% | 75.5% | 102% | 59.4% | 97.6% | 65%
13 | CC(=O)c1c(C)c2cnc(Nc3ccc(N4CCNCC4)cn3)nc2n(C2CCCC2)c1=O [palbociclib] + Cn1cncc1[C@@](N)(c1ccc(Cl)cc1)c1ccc2c(c1)c(-c1cccc(Cl)c1)cc(=O)n2C [tipifarnib] (first compound 0.04 µM, partner dose 0.01 µM) | 136% | 49.5% | 71.5% | 224% | 130% | 76.7% | 103% | 195% | 83.8% | 212% | 99.4% | 161% | 112% | 90.2% | 168% | 262%
14 | CC1(C)NC(=O)N(c2ccc([N+](=O)[O-])c(C(F)(F)F)c2)C1=O [nilutamide] + O=C(O)c1ccc(-c2c[nH]c3ncc(-c4ccccc4)cc23)cc1C1CCCC1 [GSK650394] (first compound 1 µM, partner dose 0.16 µM) | 122% | 274% | 68.5% | 88.1% | 65% | 141% | 67.8% | 39.4% | 74.1% | 83% | 59.5% | 188% | 96.8% | 33.1% | 107% | 29.2%
15 | CC1(C)NC(=O)N(c2ccc([N+](=O)[O-])c(C(F)(F)F)c2)C1=O [nilutamide] + Cc1cc(N2CCOCC2)cc2[nH]c(-c3c(NC[C@@H](O)c4cccc(Cl)c4)cc[nH]c3=O)nc12 [BMS536924] (first compound 1 µM, partner dose 0.2 µM) | 94.4% | 192% | 92.1% | 85.1% | 65.7% | 56.7% | 63.5% | 35.9% | 31.4% | 99.2% | 105% | 217% | 129% | 62.8% | 88.7% | 112%
16 | Cc1ccc(NC(=O)c2cccc(N(C)C)c2)cc1NC(=O)c1ccc(O)cc1 + Cc1cc(N2CCOCC2)cc2[nH]c(-c3c(NC[C@@H](O)c4cccc(Cl)c4)cc[nH]c3=O)nc12 [BMS536924] (first compound 2 µM, partner dose 0.2 µM) | 88.9% | 95.8% | 51.3% | 66.6% | 64.7% | 64% | 85.7% | 226% | 136% | 60.1% | 123% | 61.6% | 103% | 45.6% | 123% | 32.2%
17 | C#Cc1cccc(Nc2ncnc3cc(OCCOC)c(OCCOC)cc23)c1 [erlotinib] + COc1cc(Nc2ncc(F)c(Nc3ccc4c(n3)NC(=O)C(C)(C)O4)n2)cc(OC)c1OC [Tamatinib] (first compound 0.8 µM, partner dose 0.4 µM) | 47.1% | 96.7% | 54.1% | 127% | 70.1% | 13% | 68.8% | 197% | 77.9% | 109% | 165% | 222% | 142% | 64.7% | 103% | 58.4%

Part of the list above, reduced to cleaved PARP positive nuclei fraction (WM3619), cleaved PARP positive nuclei fraction (SkMel28) and cleaved PARP positive nuclei fraction (WM451Lu).
Row,SMILES,cleaved PARP positive nuclei fraction (WM3619),cleaved PARP positive nuclei fraction (SkMel28),cleaved PARP positive nuclei fraction (WM451Lu)
13,"CC(=O)c1c(C)c2cnc(Nc3ccc(N4CCNCC4)cn3)nc2n(C2CCCC2)c1=O [palbociclib] + Cn1cncc1[C@@](N)(c1ccc(Cl)cc1)c1ccc2c(c1)c(-c1cccc(Cl)c1)cc(=O)n2C [tipifarnib] (first compound 0.04 µM, partner dose 0.01 µM)",168%,130%,262%
14,"CC1(C)NC(=O)N(c2ccc([N+](=O)[O-])c(C(F)(F)F)c2)C1=O [nilutamide] + O=C(O)c1ccc(-c2c[nH]c3ncc(-c4ccccc4)cc23)cc1C1CCCC1 [GSK650394] (first compound 1 µM, partner dose 0.16 µM)",107%,65%,29.2%
